Assay results as given in paper PMC3948368.
For at least one entry, the source does not settle the construct or the ends of the probe. Results from cells or extracts need not show a direct contact.

Biological target: EGFRvIII (U87-EGFRvIII cell lysate) del30-297 (UniProt P00533)
Assay: pull-down with anti-EGFR immunoblot
Conditions: flow cytometry on ice 40 min, pull-down conditions not given, protein in a lysate after overexpression, single-stranded DNA

Sequence | binding result
ATCCAGAGTGACGCAGCATTTTGACGCTTTATCCTTTTCTTATGGCGGGATAGTTTCGTGGACACGGTGGCTTAGT [U2] | binds
ATCCAGAGTGACGCAGCATGAATCTTTTCTTTTGGTTTTGATATTTATAGTTGGTGAATGGACACGGTGGCTTAGT [U8] | binds
